# Assay results published in the supplement of paper PMC6411743.
# Protein sequences, listed by entry. Tags and fused reporters are not part of them. Lines headed by an entry give the natural chain unless they say otherwise; changes in a name come on top.
# UniProt O43752: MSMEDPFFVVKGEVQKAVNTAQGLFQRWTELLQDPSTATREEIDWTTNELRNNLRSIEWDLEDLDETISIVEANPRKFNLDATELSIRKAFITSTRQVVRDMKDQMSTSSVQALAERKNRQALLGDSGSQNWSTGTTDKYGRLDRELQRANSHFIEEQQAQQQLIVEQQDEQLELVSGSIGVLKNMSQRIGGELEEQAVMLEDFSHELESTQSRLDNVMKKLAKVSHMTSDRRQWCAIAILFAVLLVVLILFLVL
# UniProt O43310: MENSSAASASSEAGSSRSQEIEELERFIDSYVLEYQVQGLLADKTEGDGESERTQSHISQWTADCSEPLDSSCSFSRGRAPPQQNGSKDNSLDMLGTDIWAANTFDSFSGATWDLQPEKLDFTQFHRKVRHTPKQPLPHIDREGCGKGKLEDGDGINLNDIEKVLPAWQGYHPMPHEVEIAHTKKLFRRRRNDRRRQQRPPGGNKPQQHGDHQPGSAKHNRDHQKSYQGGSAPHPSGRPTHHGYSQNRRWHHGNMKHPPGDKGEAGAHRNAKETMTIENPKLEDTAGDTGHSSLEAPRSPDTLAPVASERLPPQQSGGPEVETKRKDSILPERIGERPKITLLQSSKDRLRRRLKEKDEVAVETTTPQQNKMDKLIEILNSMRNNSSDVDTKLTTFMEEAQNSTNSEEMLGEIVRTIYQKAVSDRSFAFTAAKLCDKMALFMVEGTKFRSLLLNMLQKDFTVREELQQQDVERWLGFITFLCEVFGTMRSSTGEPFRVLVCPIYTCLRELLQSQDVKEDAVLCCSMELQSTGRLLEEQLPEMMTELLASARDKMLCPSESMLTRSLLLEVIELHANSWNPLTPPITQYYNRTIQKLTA
# UniProt O00273: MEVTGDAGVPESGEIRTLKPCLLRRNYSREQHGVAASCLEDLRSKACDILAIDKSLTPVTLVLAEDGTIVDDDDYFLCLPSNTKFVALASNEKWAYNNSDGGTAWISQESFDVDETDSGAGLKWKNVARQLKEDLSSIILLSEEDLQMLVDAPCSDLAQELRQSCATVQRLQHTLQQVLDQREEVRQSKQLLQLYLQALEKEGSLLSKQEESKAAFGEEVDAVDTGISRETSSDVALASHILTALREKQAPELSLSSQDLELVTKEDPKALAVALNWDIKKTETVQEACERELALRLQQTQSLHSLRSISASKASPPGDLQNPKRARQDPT
# ± gives the standard deviation of the averaged measurements. The list shows a part of the results.
# Compound: Nc1nc2c(ncn2[C@@H]2O[C@H](COP(=O)(O)OP(=O)(O)OP(=O)(O)O)[C@@H](O)[C@H]2O)c(=O)[nH]1 [guanosine triphosphate]
# Experiment: NP40-soluble protein abundance relative to vehicle (solubility fold change) (ratio); higher = more soluble protein in presence of GTP
# Method: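 Solubility proteome profiling in Jurkat crude lysate. Lysate was treated with Mg-GTP (0.1-10 mM) for 10 min at room temperature and 3 min at 37 °C, then solubilised with 0.8% NP40 and benzonase, followed by ultracentrifugation. Proteins were quantified by TMT10 LC-MS/MS; the value is the NP40-soluble abundance relative to the NP40-processed vehicle, from 3 independent experiments.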
target,measurement,setting,value
STX6 (UniProt O43752),NP40-soluble protein abundance,concentration: 0.1mM,0.923 ± 0.05
same,NP40-soluble protein abundance,concentration: 0.5mM,0.878 ± 0.082
same,NP40-soluble protein abundance,concentration: 1mM,0.967 ± 0.084
same,NP40-soluble protein abundance,concentration: 2mM,0.932 ± 0.062
same,NP40-soluble protein abundance,concentration: 4mM,0.921 ± 0.066
same,NP40-soluble protein abundance,concentration: 6mM,0.908 ± 0.065
same,NP40-soluble protein abundance,concentration: 8mM,0.896 ± 0.021
same,NP40-soluble protein abundance,concentration: 10mM,0.907 ± 0.084
HMGN4 (UniProt O00479),NP40-soluble protein abundance,concentration: 0.1mM,1.08 ± 0.057
same,NP40-soluble protein abundance,concentration: 0.5mM,1.06 ± 0.12
same,NP40-soluble protein abundance,concentration: 1mM,1.02 ± 0.12
same,NP40-soluble protein abundance,concentration: 2mM,1.31 ± 0.04
same,NP40-soluble protein abundance,concentration: 4mM,1.83 ± 0.15
same,NP40-soluble protein abundance,concentration: 6mM,2.26 ± 0.16
same,NP40-soluble protein abundance,concentration: 8mM,1.51 ± 0.74
same,NP40-soluble protein abundance,concentration: 10mM,4.79 ± 0.19
UniProt O43310,NP40-soluble protein abundance,concentration: 0.1mM,0.958 ± 0.092
same,NP40-soluble protein abundance,concentration: 0.5mM,1.03 ± 0.1
same,NP40-soluble protein abundance,concentration: 1mM,1.02 ± 0.25
same,NP40-soluble protein abundance,concentration: 2mM,1.03 ± 0.18
same,NP40-soluble protein abundance,concentration: 4mM,0.998 ± 0.14
same,NP40-soluble protein abundance,concentration: 6mM,0.988 ± 0.17
same,NP40-soluble protein abundance,concentration: 8mM,1 ± 0.14
same,NP40-soluble protein abundance,concentration: 10mM,1.02 ± 0.11
UniProt O00154-4|K7EKP8,NP40-soluble protein abundance,concentration: 0.1mM,0.933 ± 0.058
same,NP40-soluble protein abundance,concentration: 0.5mM,0.94 ± 0.066
same,NP40-soluble protein abundance,concentration: 1mM,0.892 ± 0.044
same,NP40-soluble protein abundance,concentration: 2mM,0.902 ± 0.045
same,NP40-soluble protein abundance,concentration: 4mM,0.907 ± 0.046
same,NP40-soluble protein abundance,concentration: 6mM,0.89 ± 0.043
same,NP40-soluble protein abundance,concentration: 8mM,0.873 ± 0.069
same,NP40-soluble protein abundance,concentration: 10mM,0.866 ± 0.046
UniProt O00273 and related entries,NP40-soluble protein abundance,concentration: 0.1mM,0.89 ± 0.086
same,NP40-soluble protein abundance,concentration: 0.5mM,0.9 ± 0.093
same,NP40-soluble protein abundance,concentration: 1mM,0.903 ± 0.11
same,NP40-soluble protein abundance,concentration: 2mM,0.869 ± 0.11
same,NP40-soluble protein abundance,concentration: 4mM,0.859 ± 0.11
same,NP40-soluble protein abundance,concentration: 6mM,0.875 ± 0.1
same,NP40-soluble protein abundance,concentration: 8mM,0.861 ± 0.099
same,NP40-soluble protein abundance,concentration: 10mM,0.882 ± 0.098

# 2 entries from above, reformatted:
target	measurement	setting	value
UniProt O00154-4|K7EKP8	NP40-soluble protein abundance	concentration: 8mM	0.873 ± 0.069
same	NP40-soluble protein abundance	concentration: 10mM	0.866 ± 0.046
